PMC7804408
No constants are given. Whether binding was seen depends on the method and setting.

Sequences of proteins named here, by UniProt entry; tags and fusion partners are left off. Residues count along the entry.
UniProt P0A850: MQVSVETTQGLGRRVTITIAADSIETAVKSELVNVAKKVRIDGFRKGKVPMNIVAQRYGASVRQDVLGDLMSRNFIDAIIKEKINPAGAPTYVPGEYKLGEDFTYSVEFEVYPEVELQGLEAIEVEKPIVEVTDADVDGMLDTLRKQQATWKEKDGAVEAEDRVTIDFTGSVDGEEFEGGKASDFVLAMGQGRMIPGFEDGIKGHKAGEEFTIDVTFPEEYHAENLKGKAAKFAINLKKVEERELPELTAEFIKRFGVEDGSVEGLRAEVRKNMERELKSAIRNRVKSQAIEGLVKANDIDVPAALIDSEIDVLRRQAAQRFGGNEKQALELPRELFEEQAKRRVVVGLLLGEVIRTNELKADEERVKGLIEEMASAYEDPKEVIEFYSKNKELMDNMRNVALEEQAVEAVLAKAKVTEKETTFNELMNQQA
UniProt P0A6G7, residues 15-207: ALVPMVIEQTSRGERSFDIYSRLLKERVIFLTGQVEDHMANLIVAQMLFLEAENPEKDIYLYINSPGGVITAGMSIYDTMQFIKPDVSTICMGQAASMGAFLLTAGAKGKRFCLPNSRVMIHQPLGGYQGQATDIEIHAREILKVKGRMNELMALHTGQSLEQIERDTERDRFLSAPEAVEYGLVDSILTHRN

Molecular target: trigger factor (TF) (E. coli) (UniProt P0A850)
Experiment: SPR; TF immobilised on a CM5 chip by amine coupling, analytes injected at 20 μL/min for 90 s; Biacore X, 22 °C; 10 mM HEPES pH 7.5, 150 mM NaCl, 3 mM EDTA, 0.005% P20; steady-state response against concentration, one-site Langmuir model; apparent Kd for ClpX; both purified

- binding: no binding
Substance: ClpP (from UniProt P0A6G7 15-207) (enzyme)
